Results are given in words; binding and its absence hold for the method and conditions named. For some of these results: A result given as binding can be weak or reduced; the word gives no strength.
What was measured:
[1] = molecular target: TatC from Pisum sativum (thylakoidal) (Pisum sativum (endogenous in pea thylakoids)); experiment: condition: only after treatment with DDM, in complex #4
[2] = molecular target: TatC from Pisum sativum (thylakoidal) (Pisum sativum (endogenous in pea thylakoids)); experiment: condition: only after additional treatment with DDM, Triton X-114 or heat
[3] = molecular target: TatC from Pisum sativum (thylakoidal) (Pisum sativum (endogenous in pea thylakoids)); experiment: native gel or EMSA
[4] = molecular target: TatC from Pisum sativum (thylakoidal) (Pisum sativum (endogenous in pea thylakoids)); experiment: native gel or EMSA; remark: listed apart in the source

B1: TatB from Pisum sativum (thylakoidal) (protein, UniProt Q94G16 87-261)
chain: ASLFGVGAPEALVIGVVALLVFGPKGLAEVARNLGKTLREFQPTIREIQDVSREFKSTLEREIGIDDITNPLQSTYSSNVRNTTPTPSATEITNNSQTAVDPNGKVDESKAYSSEEYLKITEEQLKAVAAQQQEQTSSPKEDEIEQQIQPPANETAATVPPPQKPESESSLPSDL
binding [1]: no binding | binding [2]: no binding | binding [3]: binds | binding [4]: binds
